This assay relates to E. coli expressing HaloTag. Kind of assay: Bacterial ChloroAlkane Penetration Assay (BaCAPA) pulse-chase, flow cytometry. In kind it is cell-based. Conditions: Escherichia coli, pulse with chloroalkane-tagged molecule, chase with 5 μM R110cl, IPTG induced, read-out: EC50 (apparent accumulation/permeation, BaCAPA). The source says:
The process is useful as an assay method that is adapted from the chloroalkane penetration assay (CAPA; Kascakova S, Maigre L, Chevalier J, Refregiers M, Pages J M. Antibiotic transport in resistant bacteria: synchrotron UV fluorescence microscopy to determine antibiotic accumulation with single cell resolution. PLOS One. 2012; 7(6)), which is measures the accumulation of molecules into mammalian cells. This method relies on the genetically encoded HaloTag^24, a mutant form of a bacterial haloalkane dehalogenase that facilitates covalent bond formation with chloroalkane-linked ligands (FIG. 1). Previous efforts utilizing the HaloTag protein within bacteria focused on the visualization of protein fusions^25-26 and the role of a cationic peptide on membrane permeabilization.^27 Bacterial Chloroalkane Penetration Assay (BaCAPA) measures the apparent accumulation of molecules into bacterial cells. The assay is based on the expression of the HaloTag protein inside bacterial cells, which are exposed to molecules of interest linked to a chloroalkane tag. If the molecules reach the HaloTag proteins inside the bacteria, they will be covalently bound to the protein. […] Therefore, a decrease in cellular fluorescence signal should be reflective. […]
HaloTag Protein Expression: Cytoplasmic HaloTag protein. […] The pellet was washed three times with 1×PBS pH 7.2 following which cells were ready for assaying. […]
Background: Flow cytometry measures light scatter and fluorescence of single cells or particles in a stream.

With `O=C(CN1CCN(c2cc3c(cc2F)c(=O)c(C(=O)O)cn3C2CC2)CC1)NCCOCCOCCCCCCCl` [Compound 7], the EC50 was 6.5 µM.
`O=C(NCCOCCOCCCCCCCl)c1cn(C2CC2)c2cc(N3CCNCC3)c(F)cc2c1=O` [Compound 8, Ciprofloxacin-carboxy-HaloTag amide]: the EC50 came to 0.5 µM.

The record behind these values is patent US20250305023A1, “MEASUREMENT OF PERMEATION OF SMALL MOLECULES INTO GRAM NEGATIVE BACTERIA” (University of Virginia Patent Foundation, priority 2022, published 2025).
